# Source: paper PMC5415356
# The chains behind the UniProt entries cited, without tags or fusion partners.
# UniProt P35240: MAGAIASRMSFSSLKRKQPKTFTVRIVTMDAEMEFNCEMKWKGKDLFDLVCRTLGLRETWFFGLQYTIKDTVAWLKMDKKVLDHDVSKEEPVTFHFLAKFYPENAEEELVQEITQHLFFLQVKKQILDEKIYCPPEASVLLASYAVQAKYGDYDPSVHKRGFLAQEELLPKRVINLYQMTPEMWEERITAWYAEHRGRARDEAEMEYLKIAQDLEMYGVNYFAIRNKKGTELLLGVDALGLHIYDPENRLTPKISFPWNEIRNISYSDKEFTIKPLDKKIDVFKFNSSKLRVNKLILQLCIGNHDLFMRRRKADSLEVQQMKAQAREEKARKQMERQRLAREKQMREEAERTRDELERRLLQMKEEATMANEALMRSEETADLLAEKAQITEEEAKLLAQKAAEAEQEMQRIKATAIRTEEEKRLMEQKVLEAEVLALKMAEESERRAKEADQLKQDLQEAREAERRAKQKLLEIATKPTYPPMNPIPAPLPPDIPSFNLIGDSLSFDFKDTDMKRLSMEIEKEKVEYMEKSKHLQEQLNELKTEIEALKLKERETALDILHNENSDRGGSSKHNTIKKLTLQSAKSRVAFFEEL
# UniProt P46937: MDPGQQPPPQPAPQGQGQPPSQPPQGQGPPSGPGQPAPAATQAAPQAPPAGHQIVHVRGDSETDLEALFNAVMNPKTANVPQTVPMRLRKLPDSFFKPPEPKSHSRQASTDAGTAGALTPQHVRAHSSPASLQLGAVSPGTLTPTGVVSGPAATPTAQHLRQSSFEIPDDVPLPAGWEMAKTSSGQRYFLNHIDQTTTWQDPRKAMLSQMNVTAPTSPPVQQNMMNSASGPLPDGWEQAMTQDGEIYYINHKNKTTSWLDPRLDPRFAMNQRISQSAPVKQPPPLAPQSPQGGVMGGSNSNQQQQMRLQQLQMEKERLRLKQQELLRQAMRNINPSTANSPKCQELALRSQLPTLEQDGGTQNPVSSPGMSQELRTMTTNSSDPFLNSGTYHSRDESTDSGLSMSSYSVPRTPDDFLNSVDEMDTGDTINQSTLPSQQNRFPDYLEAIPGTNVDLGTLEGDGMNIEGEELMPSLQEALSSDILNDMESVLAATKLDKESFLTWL
# UniProt Q8NI35: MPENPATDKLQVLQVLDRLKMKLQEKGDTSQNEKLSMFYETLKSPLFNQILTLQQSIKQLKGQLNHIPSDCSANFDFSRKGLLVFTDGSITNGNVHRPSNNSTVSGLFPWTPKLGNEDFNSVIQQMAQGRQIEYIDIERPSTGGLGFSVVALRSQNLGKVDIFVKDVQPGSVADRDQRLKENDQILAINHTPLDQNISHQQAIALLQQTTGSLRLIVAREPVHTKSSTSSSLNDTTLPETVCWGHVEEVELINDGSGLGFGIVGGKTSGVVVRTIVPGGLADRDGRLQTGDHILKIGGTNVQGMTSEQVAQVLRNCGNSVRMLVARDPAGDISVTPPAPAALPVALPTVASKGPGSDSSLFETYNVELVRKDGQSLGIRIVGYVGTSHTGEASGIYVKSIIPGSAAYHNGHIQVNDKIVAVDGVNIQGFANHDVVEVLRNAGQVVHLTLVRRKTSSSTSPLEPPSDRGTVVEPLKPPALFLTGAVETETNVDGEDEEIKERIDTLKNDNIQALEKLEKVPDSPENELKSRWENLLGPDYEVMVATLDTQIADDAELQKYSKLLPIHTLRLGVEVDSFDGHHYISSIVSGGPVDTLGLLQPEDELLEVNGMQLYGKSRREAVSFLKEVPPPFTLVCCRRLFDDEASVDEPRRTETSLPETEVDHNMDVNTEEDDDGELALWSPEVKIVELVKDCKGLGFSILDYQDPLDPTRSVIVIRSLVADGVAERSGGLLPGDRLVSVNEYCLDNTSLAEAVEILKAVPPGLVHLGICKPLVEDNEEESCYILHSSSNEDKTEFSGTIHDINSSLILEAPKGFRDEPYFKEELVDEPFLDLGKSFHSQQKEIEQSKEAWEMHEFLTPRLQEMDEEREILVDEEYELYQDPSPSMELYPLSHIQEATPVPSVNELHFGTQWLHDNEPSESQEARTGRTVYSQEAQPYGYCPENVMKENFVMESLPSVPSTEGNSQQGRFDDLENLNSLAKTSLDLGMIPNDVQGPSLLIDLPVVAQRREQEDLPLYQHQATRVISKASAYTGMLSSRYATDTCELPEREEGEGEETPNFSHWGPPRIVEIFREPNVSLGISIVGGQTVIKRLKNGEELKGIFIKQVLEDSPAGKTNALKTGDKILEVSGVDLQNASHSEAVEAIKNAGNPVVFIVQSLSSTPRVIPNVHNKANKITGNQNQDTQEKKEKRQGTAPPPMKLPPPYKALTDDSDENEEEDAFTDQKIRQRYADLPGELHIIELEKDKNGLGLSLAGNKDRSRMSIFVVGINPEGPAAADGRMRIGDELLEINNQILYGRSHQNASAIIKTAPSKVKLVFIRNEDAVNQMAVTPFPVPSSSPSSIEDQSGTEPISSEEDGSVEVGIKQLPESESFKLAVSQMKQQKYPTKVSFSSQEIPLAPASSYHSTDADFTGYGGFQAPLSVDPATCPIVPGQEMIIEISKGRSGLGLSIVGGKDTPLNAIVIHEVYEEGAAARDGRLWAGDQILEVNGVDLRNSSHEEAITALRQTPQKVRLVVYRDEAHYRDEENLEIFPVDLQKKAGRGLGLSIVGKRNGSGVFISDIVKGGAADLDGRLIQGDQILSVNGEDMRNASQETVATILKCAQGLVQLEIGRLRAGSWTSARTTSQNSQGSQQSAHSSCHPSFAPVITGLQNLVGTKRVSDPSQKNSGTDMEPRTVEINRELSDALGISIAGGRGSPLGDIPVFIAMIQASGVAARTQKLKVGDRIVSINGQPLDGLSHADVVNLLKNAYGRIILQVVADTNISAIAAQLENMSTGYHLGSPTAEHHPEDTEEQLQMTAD
# These are yes or no findings as the source states them, for the method shown. Binding seen in cells or lysates may run through a third protein. Some binding calls cover weakened binding; strength is not graded here. For some of these results: Tags and fused reporters may be left off the sequences shown.
# T1: Flag-Pals1 (UniProt Q8N3R9)
# T1 sequence: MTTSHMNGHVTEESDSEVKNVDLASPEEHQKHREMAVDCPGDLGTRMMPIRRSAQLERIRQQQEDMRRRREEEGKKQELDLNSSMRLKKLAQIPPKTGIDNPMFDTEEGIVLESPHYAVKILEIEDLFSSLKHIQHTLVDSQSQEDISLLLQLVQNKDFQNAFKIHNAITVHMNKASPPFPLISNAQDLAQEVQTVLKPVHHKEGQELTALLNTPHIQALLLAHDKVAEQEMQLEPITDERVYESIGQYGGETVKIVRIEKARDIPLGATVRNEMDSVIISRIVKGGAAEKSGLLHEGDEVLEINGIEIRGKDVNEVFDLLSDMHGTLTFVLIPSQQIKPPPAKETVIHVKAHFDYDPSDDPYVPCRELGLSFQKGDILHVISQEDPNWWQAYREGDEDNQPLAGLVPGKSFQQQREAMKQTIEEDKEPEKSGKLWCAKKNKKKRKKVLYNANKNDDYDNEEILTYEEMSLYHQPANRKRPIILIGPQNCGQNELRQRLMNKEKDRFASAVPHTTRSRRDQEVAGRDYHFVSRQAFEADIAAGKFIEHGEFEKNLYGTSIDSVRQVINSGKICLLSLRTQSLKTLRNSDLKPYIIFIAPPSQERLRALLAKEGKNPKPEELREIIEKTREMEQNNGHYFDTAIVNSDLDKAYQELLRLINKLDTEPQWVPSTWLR
# What was measured:
# [1] = biological target: Merlin (endogenous) (human (endogenous in HEK293)) (UniProt P35240); experiment: co-IP; HEK293-shAmot cells transfected with Amot-p130; IPs with antibodies to phospho-Amot (Ser176), YAP or Merlin, immunoblot
# [2] = biological target: YAP (endogenous) (human (endogenous in HEK293)) (UniProt P46937); experiment: as above
# Flag-Pals1 = biological target: T1, Flag-Pals1; experiment: co-IP; HEK293-shAmot cells co-transfected with an Amot-p130 allele (WT, S176A, S176E or PY motif mutants) and tagged partners; total RIPA lysate, IP with tag or protein antibodies overnight, immunoblot
# Flag-tagged Patj = Flag-tagged Patj (UniProt Q8NI35); experiment: as above
Binder,binding [1],binding [2],binding (Flag-Pals1),binding (Flag-tagged Patj)
"Amot-p130 phosphorylated at S176 (protein, UniProt Q8VHG2 1-1126, phosphoserine at 176) MRSSDDQPSGGTTVLQRLLQEQLRYGNPSENRSLLAIHQQATGNSSPFSTGSGNQGPQNDVLSSQDHHQQQLVAHPARQEPQGQEIQSENGVMEKQLSPRMQNNEELPTYEEAKVQSQYFRGQQHASVGAAFYVTGVTNQKMRTEGRPSVQRLTPGKMHQDEGLRDLKQGHVRSLSERLMQMSLATSGVKAHPPVTSAPLSPPQPNDLYKNATSSSEFYKAQGPPPSQHSLKGMEHRGPPPEYPFKGVPSQSVVCKSQEPGHFYSEHRLNQPGRTEGQLMRYQHPPEYGAARATQDISSLSLSARNSQPHSPTSSLTAGASSLPLLQSPPSTRLPPGQHLVSNQGDHSAHLSRHQQHLLSSQSHQGDHYRHAQASLTSAQQQPGEAYSAMPRAQQSASYQPMPADPFAMVSRAQQMVEILSDENRNLRQELDGCYEKVARLQKVETEIQRVSEAYENLVKSSSKREALEKAMRNKLEGEIRRMHDFNRDLRDRLETANKQLAEKEYEGSEDTRKTISQLFAKHKENQREKEKLEAELATARSTNEDQRRHIEIRDQALSNAQAKVVKLEEELKKKQVYVDKVEKMQQALVQLQAACEKREQLEHRLRTRLERELESLRIQQRQGNSQPTNASEYNAAALMELLREKEERILALEADMTKWEQKYLEENVMRHFALDAAATVAAQRDTTVISHSPNTSYDTALEARIQKEEEEILMANKRCLDMEGRIKTLHAQIIEKDAMIKVLQQRSRKEPSKTEQLSSMRPAKSLMSISNAGSGLLAHSSTLTGAPIMEEKRDDKSWKGSLGVLLGGDYRVEPVPSTPSPVPPSTPLLSAHSKTGSRDCSTQTERGPESTKTAAVTPISAPMAGPVAAAAPAAAINATAATNTATAATNTTIMVAAAPVAVAAVAAPAAAAATPSPANAAALAAAAAPATSVSAATSVSAANSISPAAPVAPAAVVPPAAPVSPAAAVQIPAAASLTPATVSPTAATATAAVAAATTAAITAAAAAATTAIQVAPATSAPVPSPASIPAPATAQASAPTPTQASTPAPTEPPSPVPTPTPALVQTEGPANPGASSGPRRLSTPNLMCNPDKPDAPAFHSSTLERKTPIQILGQEPDAEMVEYLI",binds,binds,–,–
"HA-Amot-p130^S176E (protein, UniProt Q8VHG2 1-1126) MRSSDDQPSGGTTVLQRLLQEQLRYGNPSENRSLLAIHQQATGNSSPFSTGSGNQGPQNDVLSSQDHHQQQLVAHPARQEPQGQEIQSENGVMEKQLSPRMQNNEELPTYEEAKVQSQYFRGQQHASVGAAFYVTGVTNQKMRTEGRPSVQRLTPGKMHQDEGLRDLKQGHVRSLEERLMQMSLATSGVKAHPPVTSAPLSPPQPNDLYKNATSSSEFYKAQGPPPSQHSLKGMEHRGPPPEYPFKGVPSQSVVCKSQEPGHFYSEHRLNQPGRTEGQLMRYQHPPEYGAARATQDISSLSLSARNSQPHSPTSSLTAGASSLPLLQSPPSTRLPPGQHLVSNQGDHSAHLSRHQQHLLSSQSHQGDHYRHAQASLTSAQQQPGEAYSAMPRAQQSASYQPMPADPFAMVSRAQQMVEILSDENRNLRQELDGCYEKVARLQKVETEIQRVSEAYENLVKSSSKREALEKAMRNKLEGEIRRMHDFNRDLRDRLETANKQLAEKEYEGSEDTRKTISQLFAKHKENQREKEKLEAELATARSTNEDQRRHIEIRDQALSNAQAKVVKLEEELKKKQVYVDKVEKMQQALVQLQAACEKREQLEHRLRTRLERELESLRIQQRQGNSQPTNASEYNAAALMELLREKEERILALEADMTKWEQKYLEENVMRHFALDAAATVAAQRDTTVISHSPNTSYDTALEARIQKEEEEILMANKRCLDMEGRIKTLHAQIIEKDAMIKVLQQRSRKEPSKTEQLSSMRPAKSLMSISNAGSGLLAHSSTLTGAPIMEEKRDDKSWKGSLGVLLGGDYRVEPVPSTPSPVPPSTPLLSAHSKTGSRDCSTQTERGPESTKTAAVTPISAPMAGPVAAAAPAAAINATAATNTATAATNTTIMVAAAPVAVAAVAAPAAAAATPSPANAAALAAAAAPATSVSAATSVSAANSISPAAPVAPAAVVPPAAPVSPAAAVQIPAAASLTPATVSPTAATATAAVAAATTAAITAAAAAATTAIQVAPATSAPVPSPASIPAPATAQASAPTPTQASTPAPTEPPSPVPTPTPALVQTEGPANPGASSGPRRLSTPNLMCNPDKPDAPAFHSSTLERKTPIQILGQEPDAEMVEYLI",–,–,binds,binds
